From paper PMC3743775
These are yes or no findings as the source states them, for the method shown. In cells and extracts the contact can be indirect. Some entries that bind do so weakly or less than the wild type.

The chains behind the UniProt entries cited, without tags or fusion partners. Residues count along the entry.
UniProt Q8TDQ0, residues 22-301: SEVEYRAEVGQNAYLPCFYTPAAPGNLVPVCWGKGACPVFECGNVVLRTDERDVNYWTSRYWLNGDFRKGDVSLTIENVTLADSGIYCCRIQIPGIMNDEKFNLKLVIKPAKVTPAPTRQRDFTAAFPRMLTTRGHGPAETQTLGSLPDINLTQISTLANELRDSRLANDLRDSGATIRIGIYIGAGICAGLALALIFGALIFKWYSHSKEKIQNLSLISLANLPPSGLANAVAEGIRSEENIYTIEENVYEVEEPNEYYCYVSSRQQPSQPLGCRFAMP

Experiments:
[1] = biological target: galectin-9 (Gal-9) (human (endogenous in primary CD14+ M/MØ)) (UniProt O00182); assay: co-IP; as above, repeated with 30 mM α-lactose added to the M/MØ cell lysates before the co-ip to inhibit random binding of Gal-9 to Tim-3
[2] = biological target: galectin-9 (Gal-9) (human (endogenous in primary CD14+ M/MØ)) (UniProt O00182); assay: co-IP; lysates of 1 x 10^7 purified human M/MØ, stimulated with or without 1 µg/ml LPS and 2.5 µg/ml R848 for 6 h; precipitated with anti-Gal-9 (or IgG) and Protein A/G PLUS-agarose at 4 °C, blot probed with anti-Tim-3

With “T cell immunoglobulin mucin domain-3 (Tim-3) (from UniProt Q8TDQ0 22-301) (receptor)” the binding [1] was “binds” and the binding [2] was “binds”.
